Assay results published in patent publication US9695173B2, “Pharmaceutical compositions for the treatment of capillary arteriopathy” (SINOXA PHARMA GMBH, priority 2006, dated 2017).
At least one structure is not confirmed: it was looked up by name or label, or the drawing left a doubt.

Legend:
Type in all cases: in vivo, rat
male Sprague-Dawley rats [1] = assay: Monocrotaline pulmonary hypertension model, treatment days 1-28: RVSP and SAP; conditions: therapy initiated immediately after monocrotaline
Procedure: (§1) 1 monocrotaline (60 mg/kg; Sigma) was administered to rats on the day of the experiment. For this purpose, the substance was dissolved in 0.5 molar hydrochloric acid and the pH value was then adjusted to 7.4 with 0.5 molar sodium hydroxide solution. The solution was administered to male Sprague-Dawley rats as a single subcutaneous injection in a dose of 60 mg/kg. The same volume of isotonic saline solution was administered to control animals.
(§2) […] Terguride was introduced into distilled water in the presence of traces of ascorbic acid and administered by oesophageal tube in the morning and in the evening in a volume of 2 mL. The same quantity of physiological saline solution was administered to control animals.
(§3) On day 28 of the experiment, 2 hours after the last administration of the substance, the animals were put under general anesthesia using pentobarbital. Then, a tracheostomy was performed on the animals and the animals were respirated at 10 ml/kg and a frequency of […] (SAR830A/P; IITC). Anesthesia was maintained by inhalation of isoflurane.
(§4) The mean arterial pressure and the right ventricular systolic blood pressure were determined. The systemic arterial pressure was measured using a Millar catheter in the left carotid artery. […]

male Sprague-Dawley rats [2] = assay: Monocrotaline pulmonary hypertension model, treatment from day 14: right ventricular and systemic pressure; conditions: therapy started 14 days after monocrotaline
Procedure: as §1
The dosage specifications in this case relate to the free base of the substances. The substances were used as hydrogenmaleate salt or free base. They were introduced into distilled water in the presence of traces of ascorbic acid and administered by oesophageal tube in the morning and in the evening in a volume of 2 mL. The same quantity of water was administered to control animals.
as §3, §4

male Sprague-Dawley rats [3] = assay: Monocrotaline pulmonary hypertension model, treatment days 1-28: muscularization of arterial capillary vessels of the lung; conditions: therapy days 1-28
Procedure: as §1, §2
The lungs were removed, fixated in formalin and embedded in paraffin. Paraffin sections were obtained and an immunohistochemical double staining was carried out according to standard protocols. Smooth muscle cells of the vessels were stained with an antibody against actin and the endothelium was stained by means of antibodies against von Willebrand factor. […] The vessels were subdivided into 3 categories: non-muscularized vessels with 20%, partially muscularized vessels with >20%, but <70%, and fully muscularized vessels with >70% lining of the cross-section of the vessel with smooth muscle cells.

male Sprague-Dawley rats [4] = assay: Monocrotaline pulmonary hypertension model, treatment days 1-28: right ventricular hypertrophy; conditions: therapy days 1-28
Procedure: as §1, §2
After the pressure measurements had been performed, the rats were perfused with physiological saline solution. The heart was removed and prepared by dissection of the right ventricle, the septum as well as the left ventricle of each heart. The tissue preparations were freeze-dried and the dry weights were then determined by weighing out. For each individual animal, the quotient: weight of the right ventricle/weight of the left ventricle and septum (RV/LV+S) was determined from these animals as a measure for right ventricular hypertrophy.

CCN(CC)C(=O)N[C@H]1C[C@@H]2c3cccc4[nH]cc(c34)C[C@H]2N(C)C1 [Terguride, (+)-1,1-diethyl-3-(6-methyl-8α-ergolinyl)-urea]
Increase in pressure in the right ventricle (in words) (male Sprague-Dawley rats [1]): almost always suppressed
Systemic blood pressure (in words) (male Sprague-Dawley rats [1]): not changed in a detectable way
Increase in pressure in the right ventricle (in words) (male Sprague-Dawley rats [2]): reduces
Monocrotaline-induced muscularization of arterial capillary vessels (in words) (male Sprague-Dawley rats [3]): decrease
Monocrotaline-induced right ventricular hypertrophy (in words) (male Sprague-Dawley rats [4]): complete suppression
